42 sequences from PMC7819943, “Rice protein-binding microarrays: a tool to detect cis-acting elements near promoter regions in rice” can be followed below.

This is one part of the list.

For the assay, the target named is T1, OsSMF1 (Oryza sativa, UniProt Q6ZLB0 1-436).
T1 sequence: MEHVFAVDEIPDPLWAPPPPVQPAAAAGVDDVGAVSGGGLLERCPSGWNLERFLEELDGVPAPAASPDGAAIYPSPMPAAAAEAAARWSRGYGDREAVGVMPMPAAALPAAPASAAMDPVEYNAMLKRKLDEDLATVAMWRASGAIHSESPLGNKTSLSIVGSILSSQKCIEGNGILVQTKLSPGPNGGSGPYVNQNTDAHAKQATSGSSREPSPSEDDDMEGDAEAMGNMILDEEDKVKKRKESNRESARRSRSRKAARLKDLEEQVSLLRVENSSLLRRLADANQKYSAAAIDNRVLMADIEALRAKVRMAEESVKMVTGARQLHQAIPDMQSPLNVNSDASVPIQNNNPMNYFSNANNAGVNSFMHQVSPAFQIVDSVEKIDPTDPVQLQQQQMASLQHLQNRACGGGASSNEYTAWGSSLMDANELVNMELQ
Kind of assay: protein-binding microarray (RPBM); PBS, 2% BSA, 51.3 ng/ul salmon testes DNA, 50 uM zinc acetate, 200 nM TF, 25 C, 1 h; high values mean tight binding. The conditions noted are these: protein: recombinant; tags: N-terminal polyhistidine and DsRed monomer fusion (pET32a); chain copies: 2; label: CyDye5-dUTP incorporated in the synthesized complementary strand; 3' TTTTT single-stranded linker to array surface; dsDNA, one strand shown. In a few lines:
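In PBS with 2% BSA, salmon testes DNA and 50 µM zinc acetate, 200 nM protein was incubated on a custom Agilent array at 25 °C for 1 h and then washed off. The array had been made double-stranded by primer extension with Cy5-dUTP and blocked with 2% BSA. The proteins were transcription factors fused N-terminally to polyhistidine and DsRed, expressed in E. coli BL21-CodonPlus and purified on Ni–NTA. The binding signal is per-feature fluorescence intensity (arbitrary units) from an Axon 4000B scanner.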
Regarding “ATGTGCATACTTCTGTTGTCACAATTTCACAGATTCAAGCCGGAGTCACCTAGTGCAG”, the binding signal is 4820 fluorescence intensity (a.u.).
The value for “CCCACCAGGGCCGGCCGTGACCGCGCCAGCTTGTCTTCCGCGGAGTCACCTAGTGCAG” was 21700 fluorescence intensity (a.u.); that for “ATCCCAATCCATGATCCAGCCATTCATCATCTGCATATATCGGAGTCACCTAGTGCAG” was 3200 fluorescence intensity (a.u.); that for “TTTTGACTTGCCAACCATGCCTGCCGTCAACAGTGTGGCGCGGAGTCACCTAGTGCAG” was 3140 fluorescence intensity (a.u.).
“GTTTCCATCCTCATTGCGCCACATCCTCATGCAATGGCTGCGGAGTCACCTAGTGCAG”: the binding signal was 4910 fluorescence intensity (a.u.).
With “AGCCAATCGTGGGCCCCACGCCTTTTCCCCTCTCCCTCTTCGGAGTCACCTAGTGCAG”, the binding signal is 4200 fluorescence intensity (a.u.).
The value for “ACGCGCACCACCTGTTCGGCGTCAGCAAGATCCAGAAGACCGGAGTCACCTAGTGCAG” was 3610 fluorescence intensity (a.u.); that for “GAGTGAGACTTGTGACAAAGTTGTGAGTTGTGACTCAGCTCGGAGTCACCTAGTGCAG” was 11600 fluorescence intensity (a.u.); that for “CACACAGGGATGAGACGACGACGTGCAGCCGTACGTGTCACGGAGTCACCTAGTGCAG” was 6310 fluorescence intensity (a.u.).
On to “CCGGCGTACGTACGTGGACGTCAACGCATTTGAACCGGTCCGGAGTCACCTAGTGCAG”, for which the binding signal was 5530 fluorescence intensity (a.u.).
The value for “CTAGTATTTGCATCGTGACGAAAATACACAGTAGCTAATGCGGAGTCACCTAGTGCAG” was 3170 fluorescence intensity (a.u.); that for “TCCCGGCCACTTGCCGTGTGACGACGCCGGTCAAATTTTCCGGAGTCACCTAGTGCAG” was 3680 fluorescence intensity (a.u.); that for “TCTTTCATGCCAACCCGCCGTCCTAGCCACTCCCGTTCTTCGGAGTCACCTAGTGCAG” was 3510 fluorescence intensity (a.u.).
On to “GAAGAGGGGAAAAGAGAGAGGAGGTTGATGTGGCCTCGCTCGGAGTCACCTAGTGCAG”, for which the binding signal is 3160 fluorescence intensity (a.u.).
The value for “AGCAAGTGTCAACCCCATTTTGCTTCCTTTCCCACCTCCACGGAGTCACCTAGTGCAG” was 4100 fluorescence intensity (a.u.); that for “GGTGCACACGTGGCTCCAGGATCGGCGTCGTGTACTCCGGCGGAGTCACCTAGTGCAG” was 11500 fluorescence intensity (a.u.); that for “TTGGTGACAAAGCTTGAGGATAACATCAACGAGACAACGACGGAGTCACCTAGTGCAG” was 32500 fluorescence intensity (a.u.).
The value for “TTATTCCTGGCGTCGCGCGTCGCGTCACCGGCGCCGCCGCCGGAGTCACCTAGTGCAG” was 4100 fluorescence intensity (a.u.); that for “ACTGGGACTACTGCCACCTCAACTGCTTTGACGACGCGCCCGGAGTCACCTAGTGCAG” was 3470 fluorescence intensity (a.u.); that for “TTTGCTTGGGCTCAGTTGCCTGAAGAACACTCGGATGAATCGGAGTCACCTAGTGCAG” was 3520 fluorescence intensity (a.u.).
In the case of “AGGGCGCGGTTCTCGTTTGGGCCGCCTCTGACGCATCAACCGGAGTCACCTAGTGCAG”, the binding signal was 5330 fluorescence intensity (a.u.).
The value for “GGGTATGCCATGTCGACACGTAACGTATATCGAAGGGTAGCGGAGTCACCTAGTGCAG” was 9080 fluorescence intensity (a.u.); that for “GTTCATGGTTGTGACACTATTCTGCTGTATCCTTTCTTTGCGGAGTCACCTAGTGCAG” was 3400 fluorescence intensity (a.u.); that for “TGACAGGTGACTAAGCACAGTCAATTTCTTCCCTTCAGAGCGGAGTCACCTAGTGCAG” was 6060 fluorescence intensity (a.u.).
The value for “CCCATTGATGCTACAGAGAGTCCACGTCACCCTCGTCTGCCGGAGTCACCTAGTGCAG” was 42800 fluorescence intensity (a.u.); that for “GTGTCCGTCCGTGTGTGGCTGCGTGGTGGCACGTCGGCATCGGAGTCACCTAGTGCAG” was 6330 fluorescence intensity (a.u.); that for “CACTCGCTCGTCCACGCGTCGCCAATCTGAATCGGGTGTGCGGAGTCACCTAGTGCAG” was 5280 fluorescence intensity (a.u.).
As to “GGTGAGAATGACACGTGGGGCCCACGTGGGCCCCACCATTCGGAGTCACCTAGTGCAG”, the binding signal is 13800 fluorescence intensity (a.u.).
The value for “CCACCGTCCACTTCAGCACCATCCGGGAGTGACCATACGCCGGAGTCACCTAGTGCAG” was 5040 fluorescence intensity (a.u.); that for “GGAGATACGGCGAGGGGAGGGGACGGAGGGGCGGGGTGCGCGGAGTCACCTAGTGCAG” was 7640 fluorescence intensity (a.u.).
The value for “AACCAGCCCATCTAGCCTTGTCATCAACAGCATAAACAAACGGAGTCACCTAGTGCAG” was 3200 fluorescence intensity (a.u.); that for “CATCCTCATGTAGACATACATAGCTATATTTAGCAGTTTACGGAGTCACCTAGTGCAG” was 3480 fluorescence intensity (a.u.); that for “TATCTAAGTTGAACAAGCTGCTGCTACCATGTGGGGAAATCGGAGTCACCTAGTGCAG” was 3190 fluorescence intensity (a.u.).
In the case of “ATATAGAAACGTCCACGTGGCCGCAGGAGATTGGGCGTCTCGGAGTCACCTAGTGCAG”, the binding signal was 12400 fluorescence intensity (a.u.).
As to “ATGTAGGTTCCATATTAGCCAAGCCCGGGTCAATACTACTCGGAGTCACCTAGTGCAG”, the binding signal is 3890 fluorescence intensity (a.u.).
As to “GGAGTCATGGGTGCATGACTTCACTTGTCATGGTTAAATACGGAGTCACCTAGTGCAG”, the binding signal is 22900 fluorescence intensity (a.u.).
In the case of “TGTGCTCAGCCTTAATTAATTAATCGAGCGAGTCATAAGCCGGAGTCACCTAGTGCAG”, the binding signal was 3460 fluorescence intensity (a.u.).
The value for “AGCGTGGCGATGGCGGTGGGCACATTGAAGAGGATGAGCGCGGAGTCACCTAGTGCAG” was 4940 fluorescence intensity (a.u.); that for “TTCCGCCGCTGACGTCACGCATCCCATCACACACGTCACGCGGAGTCACCTAGTGCAG” was 21200 fluorescence intensity (a.u.).
The value for “CGATGAGATCATGAGAGATTGACATGTCAACGGACGCGAACGGAGTCACCTAGTGCAG” was 3170 fluorescence intensity (a.u.); that for “AATTAAACAATCGTGATCCACGTGCTGACAAGTAGGTCGCCGGAGTCACCTAGTGCAG” was 4720 fluorescence intensity (a.u.).
The value for “GCCGGGCCGGGCCGAATTCTGATGAGGCTGGCAGGTGGGCCGGAGTCACCTAGTGCAG” was 30000 fluorescence intensity (a.u.).
